# Experimental data from PubChem BioAssay AID651640 (Broad Institute, 2012).
# In all, about 350,000 compounds went through this assay and about 6,000 (1.7%) were called active. The shares of active, inactive and inconclusive entries below differ from those in the screen. Rule as the data show it: active = CPE inhibition above about 20% (passing the limit was not always enough); inconclusive = no clear call, values can overlap the other calls; tested in BHK-21 cells.
# Experiment: protection of cells from dengue 2 killing – plate reader, single concentration, primary screen (AID 651640);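 also: 0% = median of neutral control wells and 100% = median of positive control wells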
# Details: DENV2-infected cells, cytopathic effect rescue, at 9.99 µM, stronger effect = higher value
row,Structure (SMILES),CPE inhibition
1,CN(C)CCC=C1c2ccccc2CCc2ccccc21,inactive: 1.26%
2,COCCNC(=O)C[C@@H]1CC[C@@H]2[C@H](COC[C@@H](O)CN2C(=O)Nc2ccc3c(c2)OCO3)O1,inactive: -4.22%
3,C[C@H](CO)N1C[C@H](C)[C@H](CN(C)C(=O)CCN2CCCCC2)Oc2ncc(C#CCN(C)C)cc2C1=O,inactive: 9.92%
4,CC(=O)c1ccc(S(=O)(=O)NCC(=O)NC(c2nc3ccccc3[nH]2)C(C)C)cc1 (stereo not drawn),inconclusive: 55.9%
5,CN1CCN(/N=C/c2nc(-c3ccc(Cl)cc3)n3ccccc23)CC1,inactive: -4.47%
6,O=C(C[C@H]1C[C@H]2c3cc(NC(=O)CC4CC4)ccc3O[C@H]2[C@@H](CO)O1)NCc1cccc(F)c1,inactive: -1.98%
7,COc1ccc(CCn2c(O)cc3nn(-c4nc5ccccc5s4)c(=O)c-3c2C)cc1,inactive: 2.36%
8,O=C(COc1ccccc1Cl)Nc1ccc(N2CCCC2)cc1,inconclusive: 28.1%
9,C[C@@H]1CN([C@@H](C)CO)C(=O)CCCn2cc(nn2)CO[C@@H]1CN(C)Cc1cccc(C(=O)O)c1,active: 30.4%
10,O=C(NCCc1nc(-c2ccc(F)cc2)no1)c1ccc(F)cc1,inconclusive: 36.6%
11,CCCCCc1nnc(NC(=O)Cc2ccc([N+](=O)[O-])cc2)s1,inactive: -0.745%
12,CNC[C@H]1Oc2ccc(NS(=O)(=O)c3ccccc3)cc2CC(=O)N([C@@H](C)CO)C[C@H]1C,inactive: 0.0045%
13,CO[C@@H]1CN(C)C(=O)c2cc(NS(=O)(=O)c3ccccc3)ccc2OC[C@@H](C)NC[C@@H]1C,active: 29.2%
14,Cc1cccc(C)c1NC(=O)CN1CCN(C(=O)CN2C(=O)NC3(CCCCC3C)C2=O)CC1 (stereo not drawn),active: 25.3%
15,CC(=O)Nc1cccc(NC(=O)c2ccc3[nH]c(C)c(C)c3c2)c1,inconclusive: 21.1%
16,CCC(=O)NC1CC2CCCC(C1)N2Cc1ccc(C)cc1 (stereo not drawn),inconclusive: 28.9%
17,Cc1ccc(-n2ncc3c2CCCC3NC(=O)c2ocnc2C)cc1C (stereo not drawn),inconclusive: 41%
18,COC(=O)c1ccc(CNC(=O)c2ccc(S(=O)(=O)N3CCCCCC3)cc2)cc1,inconclusive: 20.4%
19,COc1cccc(-c2ccc([C@@H]3[C@H](CO)N4CCCCN(S(=O)(=O)c5cn(C)cn5)C[C@@H]34)cc2)c1,active: 26.7%
20,COc1cccc(-c2ccc3n(c2=O)C[C@H]2[C@H](CO)[C@@H](C(=O)N4CCOCC4)N[C@@H]32)c1,inconclusive: 24.8%
21,CCC(=O)N[C@@H]1CC[C@H](CC(=O)NCc2ccccc2F)O[C@@H]1CO,inactive: 4.93%
22,COc1ccc(CN(C)C[C@H]2OCCCC[C@H](C)Oc3ccc(NS(=O)(=O)c4c(C)noc4C)cc3C(=O)N([C@@H](C)CO)C[C@@H]2C)cc1,inactive: 5.86%
23,COc1ccccc1CNC(=O)C1CCC(CNS(=O)(=O)c2cccs2)CC1 (stereo not drawn),inactive: -3.72%
24,O=C(CCN1CCCCC1)NCC[C@@H]1CC[C@H](NC(=O)C2CCOCC2)[C@H](CO)O1,inconclusive: 36%
25,C[C@H]1CN([C@@H](C)CO)C(=O)c2cc(-c3ccccc3)cnc2O[C@@H]1CN(C)C(=O)c1ccccc1F,inconclusive: 22%

row,Structure (SMILES),CPE inhibition
1,C[C@H](CO)N1C[C@H](C)[C@@H](CN(C)C(=O)Nc2ccc(F)cc2)OCCCC[C@H](C)Oc2ccc(NC(=O)Cc3ccccc3)cc2C1=O,inactive: -10.9%
2,C[C@H](CO)N1C[C@H](C)[C@H](CN(C)Cc2ccc(C(=O)O)cc2)OCCCC[C@H](C)Oc2ccc(NC(=O)C3CCCCC3)cc2C1=O,inconclusive: 31.6%
3,CCOCc1c(C(=O)N2CCN(CC(=O)Nc3ccc(F)cc3)CC2)oc2ccccc12,inconclusive: 27.9%
4,Cc1ccc(C(=O)N/C(=C\c2ccc(-c3ccccc3[N+](=O)[O-])o2)C(=O)NCCN(C)C)cc1,inconclusive: 29.8%
5,CC(=O)NC[C@H]1[C@@H](c2ccc(-c3cccnc3)cc2)[C@H](CO)N1C(=O)C1CC1,active: 28.2%
6,Cc1ccnc(NC(=O)c2ccc(Cl)c(S(=O)(=O)N3CCCC3)c2)c1,active: 60.7%
7,COc1cc(/C=N/Nc2nc(C)cc(C)n2)ccc1O,inactive: 11.3%
8,CCOc1ccccc1Nc1ccc2nonc2c1[N+](=O)[O-],active: 22.7%
9,CC(=O)Cc1cc2cc([N+](=O)[O-])ccc2oc1=O,inconclusive: 26.7%
10,COCC(=O)Nc1ccc2c(c1)[C@@H]1C[C@H](CC(=O)NCc3ccc(OC)cc3)O[C@@H](CO)[C@@H]1O2,inconclusive: 24.5%
11,COc1ccccc1CN1CC(C(=O)NCCc2ncccc2C)CCC1=O (stereo not drawn),inconclusive: 36.4%
12,COCCNC(=O)c1cc2c(c(-c3cccc(C#CCN(C)C)c3)n1)[C@H](CCO)N(S(=O)C(C)(C)C)C2 (stereo partly drawn),inactive: -3.26%
13,Cc1onc(-c2ccccc2)c1C(=O)NNC(=O)c1ccccc1O,inconclusive: 21.7%
14,COc1ccc(CNC(=O)CCNC(=O)c2ccco2)cc1OC,active: 39%
15,C[C@H](CO)N1C[C@H](C)[C@@H](CN(C)S(=O)(=O)c2ccc(F)cc2)Oc2c(NC(=O)CCC(F)(F)F)cccc2C1=O,inconclusive: 31.7%
16,CCN(c1ccccc1)S(=O)(=O)c1nnc(NC(=O)C(C)(C)C)s1,inconclusive: 27%
17,COc1ccc(/C(C)=N/NC(=O)CNC(=O)/C=C/c2ccccc2OC)cc1,inconclusive: 27.1%
18,CCOC(=O)N1CCN(S(=O)(=O)c2c(C)nc3sccn3c2=O)CC1,inactive: 3.62%
19,O=C(/C=C/c1ccc(S(=O)(=O)N2CCOCC2)cc1)N1CCN(c2ccc(F)cc2)CC1,inconclusive: 32.9%
20,CCCCn1nnnc1C(CCc1ccccc1)N1CCN(C/C=C/c2ccccc2)CC1 (stereo not drawn),inconclusive: 57.3%
21,COc1ccc(CN(C)C[C@H]2Oc3ccc(NS(=O)(=O)c4ccc(C)cc4)cc3C(=O)N([C@@H](C)CO)C[C@@H]2C)cc1,inconclusive: 30.2%
22,N#C[C@@H]1[C@@H](c2ccccc2C2=CCCCC2)[C@@H](CO)N1S(=O)(=O)c1ccccc1,active: 20.8%
23,CCc1nc2ccc(C(=O)N(C)CC(=O)Nc3ccc(Cl)c(C(F)(F)F)c3)cc2nc1CC,inconclusive: 37.7%
24,O=C1ON=C(c2ccccc2)/C1=C/c1ccccc1,inconclusive: 20.7%
25,O=C(CNC(=O)c1ccc(OC(F)F)cc1)NC1CCCc2ccccc21 (stereo not drawn),inconclusive: 48.4%

# Sorted by count of non-hydrogen atoms (smallest number first): part of the list above.
row,Structure (SMILES),CPE inhibition
11,COc1ccccc1CN1CC(C(=O)NCCc2ncccc2C)CCC1=O (stereo not drawn),inconclusive: 36.4%
2,C[C@H](CO)N1C[C@H](C)[C@H](CN(C)Cc2ccc(C(=O)O)cc2)OCCCC[C@H](C)Oc2ccc(NC(=O)C3CCCCC3)cc2C1=O,inconclusive: 31.6%
1,C[C@H](CO)N1C[C@H](C)[C@@H](CN(C)C(=O)Nc2ccc(F)cc2)OCCCC[C@H](C)Oc2ccc(NC(=O)Cc3ccccc3)cc2C1=O,inactive: -10.9%

# Next part.

row,Structure (SMILES),CPE inhibition
1,Cc1ccc(N(C(=O)c2nsc(Cl)c2Cl)C(C(=O)NC2CCCC2)c2ccc(O)cc2)cc1C (stereo not drawn),active: 83.8%
2,CC1=C(C(=O)OCCBr)C(c2cccc3ccccc23)NC(=O)N1 (stereo not drawn),inconclusive: 25%
3,CCCNC(=O)N1CC2(CCN(C(=O)CC3CC3)CC2)c2c(n(C)c3cc(OC)ccc23)[C@@H]1CO,inactive: 4.53%
4,COc1ccc(NC(=O)[C@@H]2O[C@H](CO)[C@H](O)[C@H](O)[C@H]2O)cc1F,inconclusive: 21.1%
5,CCOC(=O)[C@@H]1[C@H]2COc3ccc(Br)cc3[C@@H]2N2C(=O)N(c3ccc(Br)cc3)C(=O)[C@@]12C,inconclusive: 23.8%
6,Cc1ccc(C(=O)C(=S)N2CCOCC2)cc1,active: 41.4%
7,C[C@@H]1CN([C@@H](C)CO)C(=O)Cc2cc(NC(=O)Cc3ccccc3)ccc2O[C@@H]1CN(C)Cc1ccc(Cl)c(Cl)c1,active: 65.9%
8,Cc1ccc(NC(=S)N2CCN(S(=O)(=O)c3ccc(C)cc3)CC2)cc1,active: 26.6%
9,CC(C)(C)c1ccccc1OCC(=O)Nc1ccccc1C(=O)NCc1cccnc1,inconclusive: 38.8%
10,CCCN1C(=O)c2ccc(C(=O)Nc3ccccc3C(=O)O)cc2C1=O,inactive: -0.189%
11,COCC#Cc1cnc2c(c1)C(=O)N([C@H](C)CO)C[C@H](C)[C@@H](CN(C)C(=O)C1CC1)O2,inactive: -2.1%
12,N#CCCN(C(=O)COC(=O)C1=NNC(=O)CC1)c1ccccc1,inconclusive: 49.4%
13,CC(C)CC#Cc1ccc2c(c1)O[C@H](CN(C)C(=O)c1ccncc1)[C@@H](C)CN([C@H](C)CO)S2(=O)=O,inactive: -1.76%
14,C[C@@H]1CCCCO[C@H](CN(C)CC2CCCCC2)[C@@H](C)CN([C@H](C)CO)C(=O)c2cc(NS(=O)(=O)c3ccccc3)ccc2O1,active: 27.6%
15,Cc1ccc(S(=O)(=O)N(C)C[C@@H]2OCCCC[C@@H](C)Oc3ccc(NS(=O)(=O)c4c(C)noc4C)cc3C(=O)N([C@H](C)CO)C[C@H]2C)cc1,active: 61.7%
16,C[C@@H]1CN([C@H](C)CO)C(=O)c2cc(NS(C)(=O)=O)ccc2O[C@H]1CN(C)Cc1ccc(C(=O)Nc2ccccc2N)cc1,inactive: 0.361%
17,C[C@@H]1CCCCO[C@@H](CN(C)S(=O)(=O)c2cccs2)[C@H](C)CN([C@@H](C)CO)C(=O)c2cc(NC(=O)CCC(F)(F)F)ccc2O1,inactive: -2.77%
18,Cc1c(Cl)cccc1NC(=O)CNC(=O)C1CC(=O)N(CCc2ccccc2)C1 (stereo not drawn),inactive: -0.892%
19,C[C@@H]1CN([C@@H](C)CO)C(=O)c2cccc(NC(=O)Nc3ccc(F)cc3)c2O[C@@H]1CN(C)C,inactive: -6.21%
20,O=C(Nc1nnc(-c2ccco2)o1)c1ccc(Cl)s1,inconclusive: 33.4%
21,C=CC(=O)N(CCC)C(c1ccccc1)c1ccccc1OC (stereo not drawn),inactive: -9.88%
22,COC(=O)c1c(C)nc(C)c(C(=O)OC)c1-c1ccsc1,inactive: 0.725%
23,OC[C@@H]1CN(Cc2ccncc2)C[C@H](n2cnc3c(N4CCOCC4)ncnc32)O1,inconclusive: 21.2%
